# Reference: PubChem BioAssay AID540256 (National Center for Advancing Translational Sciences (NCATS), 2011)
# About 3,700 (1.2%) of roughly 300,000 compounds were called active. The inconclusive results got no clear call from the source; some entries with a clear call stand among them for comparison. The call rests on the fitted dose curve; tested in HEK293 cells. A potency beside an inconclusive call is a rough fit, not a confirmed value.
# Assay: qHTS for Inhibitors of binding or entry into cells for Lassa Virus; further: nearly all actives have a fitted effect of over 50% in size
# Conditions: Lassa virus pseudotype entry inhibition, cell reporter; activity change, negative = inhibition: at 37.9 µM (top of the series) unless noted
# On the % scale 0 is the no-effect control and ±100 the full control effect; potency means the concentration at half of the fitted maximal effect.
SMILES,Potency,"activity change, negative = inhibition"
COc1ccc(-c2nc3cc(NC(=O)c4cc5ccccc5o4)ccc3o2)cc1,inactive,–
Cc1cc[n+]2c3c(cccc13)CCC2,inactive,–
C/C(=N\NC(=O)C1(C)CC1(Br)Br)c1ccc(NC(=O)c2ccc(C)o2)cc1 (stereo unspecified),"inconclusive: 35.5 µM [inhibitor, single point]",–
O=C(CN(C(=O)c1ccccc1Cl)C1CCCCC1)Nc1ccc(Cl)c([N+](=O)[O-])c1,"inconclusive: 8.2 µM [inhibitor, partial curve, poor fit]",–
Cn1c(=O)n(C)c2cc(N3CCCCC3)c(NC(=O)c3c(F)cccc3F)cc21,"inconclusive: 5.01 µM [inhibitor, full curve, poor fit]",–
Cc1cc(C(=O)Nc2c(C)nn(Cc3c(Cl)cccc3Cl)c2C)no1,active: 5.8 µM,–
COc1ccc(S(=O)(=O)CCC(=O)NC2CCCCC2)cc1,inactive,–
CN(C)CCCN(Cc1cc2cc3c(cc2[nH]c1=O)OCO3)C(=S)Nc1ccccc1,"inconclusive: 35.5 µM [inhibitor, partial curve, poor fit]",–
COCCN(C(=O)c1oc2ccccc2c1COC)c1c(N)n(CC(C)C)c(=O)[nH]c1=O,inactive,–
O=C(O)/C(=C\c1ccc(-c2ccc(F)cc2)o1)c1ccccc1,"inconclusive: 11.2 µM [activator, single point]",–
CCCCCCCC[n+]1c(C)n(-c2ccccc2)c2ccc(NC(C)=O)cc21,active: 7.08 µM,–
CC(Sc1nnnn1-c1ccc(O)cc1)c1nc2ccccc2c(=O)[nH]1 (stereo unspecified),"inconclusive: 17.8 µM [inhibitor, partial curve, poor fit]",–
CC[n+]1c(/C=C/N(C)c2ccccc2)oc2ccc(Cl)cc21,"inconclusive: 0.708 µM [inhibitor, full curve, poor fit]",–
O=C(Cn1nnc(-c2ccccc2F)n1)Nc1ccc2c(c1)OCCO2,"inconclusive: 15.8 µM [activator, single point]",–
CCCn1c(/C=C/c2cc[n+](C)cc2)nc2ccccc21,inactive,–
COCCN(C(=O)Cc1cccs1)C(C(=O)NCc1ccc(OC)cc1)c1ccc(C(C)C)cc1 (stereo unspecified),"inconclusive: 25.9 µM [inhibitor, single point]",–
CCc1ccc(Nc2ncc3c(n2)CC(c2ccc(OC)cc2)CC3=O)cc1 (stereo unspecified),active: 0.517 µM,–
Cn1cc(C(=O)c2ccc(Cl)cc2Cl)cc1C(=O)N/N=C(\N)COc1ccc(Cl)cc1,"inconclusive: 7.08 µM [inhibitor, partial curve, poor fit]",–
CC(C)c1ccc(NC(=O)Cc2c(C(=O)O)n(C)c3ccccc23)cc1,inactive,–
O=C(CSc1nnc(SCc2cccc3ccccc23)s1)N/N=C/C=C/c1ccccc1[N+](=O)[O-],"inconclusive: 31.6 µM [inhibitor, partial curve, poor fit]",–
Cc1cc(C(=O)CN2C(=O)NC(c3ccccc3)(c3ccccc3)C2=O)c(C)n1Cc1ccccc1,"inconclusive: 11.2 µM [inhibitor, partial curve]",–
COc1ccc(C(=O)Cc2ccc(OC)c(OC)c2)cc1,inactive,–

SMILES,Potency,"activity change, negative = inhibition"
Cc1nc(N2CCN(C(=O)CCC(=O)O)CC2)c2c(C)c(C)sc2n1,inactive,–
COc1ccc2cnn(CCOc3cc(C)ccc3C(C)C)c(=O)c2c1OC,"inconclusive: 17.8 µM [inhibitor, partial curve, poor fit]",–
CC1(C(=O)NC2CCCCCCC2)CC1(Cl)Cl (stereo unspecified),inactive,–
CN(C)Cc1ccc(CNC(=O)COc2ccc3ccccc3c2)cc1,inactive,–
COc1ccc(C(=O)Nc2ccc([N+](=O)[O-])cn2)c(OC)c1,"inconclusive: 7.08 µM [inhibitor, full curve]",–
C=CCOc1ccccc1CN1CCN(CCc2ccccc2)C(CCO)C1 (stereo unspecified),–,inconclusive: 0.16% [activator]
C=CCn1c(SC(C)C(=O)NCc2ccc3c(c2)OCO3)nc2scc(-c3ccccc3)c2c1=O (stereo unspecified),"inconclusive: 18.3 µM [inhibitor, partial curve, poor fit]",–
Cc1cccc(OCC(=O)Nc2ccccc2OCc2cc(=O)n3cc(C)ccc3n2)c1,inactive,–
Cc1ccc2nc(N3CCN(S(=O)(=O)c4ccc5c(c4)OCCO5)CC3)c(C#N)cc2c1,"inconclusive: 7.3 µM [inhibitor, partial curve, poor fit]",–
COc1ccc(CCNc2ncnc3c2oc2ccccc23)cc1OC,"inconclusive: 20.6 µM [inhibitor, partial curve]",–
O=C(CC12CC3CC(CC(Br)(C3)C1)C2)Nc1cccc(S(=O)(=O)NC2=NCCC2)c1,inactive,–
CCc1ccc2nc3c(c(C(=O)O)c2c1)CCC3,"inconclusive: 0.103 µM [inhibitor, full curve, poor fit]",–
CCOc1cccc(/C=C/C(=O)O)c1,"inconclusive: 35.5 µM [inhibitor, single point]",–
CC(C)(C)C1CCc2c(sc(NC(=O)c3ccncc3)c2C(N)=O)C1 (stereo unspecified),"inconclusive: 35.5 µM [inhibitor, single point]",–
O=C(c1ccccc1-c1ncc[nH]1)N1CCc2c([nH]c3ccccc23)C1c1ccccn1 (stereo unspecified),"inconclusive: 35.5 µM [inhibitor, partial curve, poor fit]",–
O=C(O)CC/C(=N/NC(=O)CNC(=O)c1ccc2c(c1)OCCO2)c1ccccc1,inactive,–
Cc1ccc(S(=O)(=O)CC(=O)Nc2nc(-c3ccccc3)cs2)cc1,"inconclusive: 10 µM [inhibitor, partial curve, poor fit]",–
O=C(Nc1cccc(NC(=O)c2sc3ccccc3c2Cl)c1)c1ccco1,inactive,–
O=S(=O)(Nc1ccc(-c2nnc(SCc3ccc(Cl)cc3)o2)cc1)c1ccccc1,"inconclusive: 35.5 µM [inhibitor, single point]",–
CC(=O)Nc1ccc(S(=O)(=O)NCc2cccnc2)cc1,"inconclusive: 1.3 µM [inhibitor, partial curve, poor fit]",–
COCCn1c(C)cc(O)c(C(c2ccc(Cl)cc2)N2CCCCC2)c1=O (stereo unspecified),inactive,–
CCN1CCc2c(C#N)c(NCc3ccccc3)nc(N(CC)CC)c2C1,active: 14.6 µM,–

# Looked up by compound from the entries so far (four):
SMILES,Potency,"activity change, negative = inhibition"
O=C(c1ccccc1-c1ncc[nH]1)N1CCc2c([nH]c3ccccc23)C1c1ccccn1 (stereo unspecified),"inconclusive: 35.5 µM [inhibitor, partial curve, poor fit]",–
CC(C)(C)C1CCc2c(sc(NC(=O)c3ccncc3)c2C(N)=O)C1 (stereo unspecified),"inconclusive: 35.5 µM [inhibitor, single point]",–
Cc1nc(N2CCN(C(=O)CCC(=O)O)CC2)c2c(C)c(C)sc2n1,inactive,–
C=CCn1c(SC(C)C(=O)NCc2ccc3c(c2)OCO3)nc2scc(-c3ccccc3)c2c1=O (stereo unspecified),"inconclusive: 18.3 µM [inhibitor, partial curve, poor fit]",–

# The list continues.

SMILES,Potency,"activity change, negative = inhibition"
CCOC(=O)C1(CCOc2ccccc2)CCN(Cc2cccc(-n3cccn3)c2)CC1,"inconclusive: 11.6 µM [inhibitor, single point]",–
COc1cc(NC(=O)C/C(C)=N/NC(=O)c2ccccn2)c(OC)cc1Cl,"inconclusive: 2.82 µM [activator, partial curve, poor fit]",–
Cc1cccc(NC(=O)C2CCN(S(=O)(=O)c3ccc4ccccc4c3)CC2)n1,"inconclusive: 35.5 µM [inhibitor, single point]",–
O=C(N/N=C\c1ccc(OC(=O)c2cccs2)cc1)c1ccc(Cl)cc1,inactive,–
Cc1cc(C)c2c(=N)c3ccccc3n(CCCCCCCCn3c4ccccc4c(=N)c4c(C)cc(C)nc43)c2n1,"inconclusive: 35.5 µM [inhibitor, single point]",–
Cc1ccc(-c2cc(C(F)(F)F)c(C#N)c(SCC(=O)Nc3ccccc3F)n2)cc1,"inconclusive: 6.31 µM [activator, single point]",–
CCN(c1ncnc2c1cnn2-c1cccc(Cl)c1)C1CCCCC1,"inconclusive: 1.26 µM [activator, partial curve, poor fit]",–
CC(=O)CCc1ccc(OCCCCn2cncn2)cc1,"inconclusive: 11.6 µM [activator, partial curve, poor fit]",–
CCOC(=O)c1c(NC(=O)C(c2ccccc2)c2ccccc2)sc2c1C1CCN2CC1,"inconclusive: 18.3 µM [inhibitor, single point]",–
CCOc1ccc(NC(=O)CN(C)C(=O)c2ccccc2OCc2cccc(C)c2)cc1OCC,"inconclusive: 20 µM [inhibitor, single point]",–
COc1nc(Oc2ccc(C(=O)O)cc2)nc(Oc2ccc(C(=O)O)cc2)n1,"inconclusive: 1.16 µM [activator, full curve, poor fit]",–
Cc1ccc2cc(C(c3nnnn3C3CCCC3)N(Cc3ccco3)Cc3cccs3)c(=O)[nH]c2c1 (stereo unspecified),"inconclusive: 16.4 µM [inhibitor, partial curve, poor fit]",–
Cc1ccc2cc(CN(Cc3ccco3)C(=O)c3cccs3)c(=O)[nH]c2c1,"inconclusive: 6.31 µM [inhibitor, single point]",–
Cc1cc(C)cc(NC(=O)CCN2C(=O)c3ccccc3Sc3ncccc32)c1,inactive,–
Cc1cccn2cc(-c3ccc(Cl)cc3)nc12,"inconclusive: 14.6 µM [inhibitor, single point]",–
CN(C)c1ccc(CNC(=O)c2sc3ncccc3c2-n2cccc2)cc1,"inconclusive: 35.5 µM [inhibitor, single point]",–
Nc1[nH]n2c(=O)c3c(nc2c1N=Nc1ccccc1)CCCC3,"inconclusive: 14.1 µM [inhibitor, single point]",–
Cc1ccc(OCC(=O)Nc2ccccc2Sc2ccccc2)c([N+](=O)[O-])n1,"inconclusive: 0.0731 µM [inhibitor, partial curve, poor fit]",–
Cc1ccccc1-n1cc(-c2ccc(Br)cc2)nc1SCC(N)=O,"inconclusive: 22.4 µM [inhibitor, single point]",–
CCOC(=O)c1[nH]c2ccc(C)cc2c1N,"inconclusive: 18.3 µM [inhibitor, single point]",–
O=C(NCCc1ccc(Cl)cc1)C1CCC(=O)N(C2CCCCCC2)C1 (stereo unspecified),inactive,–
O=c1[nH]c2ccccc2cc1CN(CC1CCCO1)S(=O)(=O)c1ccccc1 (stereo unspecified),"inconclusive: 3.16 µM [inhibitor, single point]",–
